The inconclusive results got no clear call from the source; some entries with a clear call stand among them for comparison. Potencies of inconclusive entries are doubtful fits and often do not repeat. Calls of active or inactive are those of the source. The call rests on the fitted dose curve; in most records, active means well fitted cell-killing curve with a large enough effect; inconclusive means small, poorly fitted or top-dose-only effect, or effect the other way; inactive means no such curve, though single readings can be large or run the other way.
How the values were obtained:
[1] = Quantitative High-Throughput drug screen in 47 multiple myeloma cell lines against the NCATS MIPE library collection: MM1R_ATCC cell viability assay (AID 1918981); further: nearly all actives have a fitted effect of over 35% in size
Outline: (§1)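 Inhibition of viability over 48 h was scored by ATP content (CellTiter-Glo) in 500-cell wells. Zero and full viability were defined by media-only and DMSO-only wells.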

[2] = Quantitative High-Throughput drug screen in 47 multiple myeloma cell lines against the NCATS MIPE library collection: LP1_DSMZ cell viability assay (AID 1918982); conditions: LP1 myeloma viability, CellTiter-Glo ATP luminescence, 48 h; viability (% of control): at 45.8 µM (top of the series); further: nearly all actives have a fitted effect of over 35% in size
Outline: as §1

[3] = Quantitative High-Throughput drug screen in 47 multiple myeloma cell lines against the NCATS MIPE library collection: KMS28PE_JCRB cell viability assay (AID 1918983); further: nearly all actives have a fitted effect of over 35% in size
Outline: as §1

[4] = Quantitative High-Throughput drug screen in 47 multiple myeloma cell lines against the NCATS MIPE library collection: L363_DSMZ cell viability assay (AID 1918984); conditions: L363 myeloma viability, CellTiter-Glo ATP luminescence, 48 h; viability (% of control): at 45.8 µM (top of the series); further: nearly all actives have a fitted effect of over 40% in size
Outline: as §1

[5] = Quantitative High-Throughput drug screen in 47 multiple myeloma cell lines against the NCATS MIPE library collection: KMS34_JCRB cell viability assay (AID 1918985); conditions: KMS34 myeloma viability, CellTiter-Glo ATP luminescence, 48 h; viability, percent of control: at 45.8 µM (top of the series); further: nearly all actives have a fitted effect of over 40% in size;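 on viability, percent of control: 100% = DMSO-only wells and 0% = media-only wells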
Outline: as §1

[6] = Quantitative High-Throughput drug screen in 47 multiple myeloma cell lines against the NCATS MIPE library collection: OCIMY7_PLB cell viability assay (AID 1918987); conditions: OCI-MY7 myeloma viability, CellTiter-Glo ATP, 48 h; viability (% of DMSO): at 45.8 µM (top of the series); further: nearly all actives have a fitted effect of over 65% in size
Outline: as §1

[7] = Quantitative High-Throughput drug screen in 47 multiple myeloma cell lines against the NCATS MIPE library collection: OCIMY5_PLB cell viability assay (AID 1918988); conditions: OCI-MY5 myeloma viability, ATP luminescence, 48 h; viability, % of control: at 45.8 µM (top of the series); further: nearly all actives have a fitted effect of over 65% in size
Outline: as §1

[8] = Quantitative High-Throughput drug screen in 47 multiple myeloma cell lines against the NCATS MIPE library collection: SKMM1_PLB cell viability assay (AID 1919863); conditions: SKMM1 myeloma viability, CellTiter-Glo ATP, 48 h; viability: hits give low values; further: nearly all actives have a fitted effect of over 35% in size
Outline: as §1

[9] = Quantitative High-Throughput drug screen in 47 multiple myeloma cell lines against the NCATS MIPE library collection: U266_ATCC cell viability assay (AID 1919864); further: nearly all actives have a fitted effect of over 35% in size
Outline: as §1

[10] = Quantitative High-Throughput drug screen in 47 multiple myeloma cell lines against the NCATS MIPE library collection: OPM1_PLB cell viability assay (AID 1918989); conditions: CellTiter-Glo, 48 h; viability (% of control): at 45.8 µM (top of the series); further: nearly all actives have a fitted effect of over 40% in size
Outline: as §1
Potency means the concentration at half of the fitted maximal effect.

| SMILES | Potency [1] | Potency [2] | Potency [3] | Potency [4] | Potency [5] | Potency [6] | Potency [7] | Potency [8] | viability [8] | Potency [9] | viability (% of DMSO) [6] | Potency [10] |
| --- | --- | --- | --- | --- | --- | --- | --- | --- | --- | --- | --- | --- |
| CNS(=O)(=O)CCc1ccc2[nH]cc(C3CCN(C)CC3)c2c1 | inconclusive: 4.69 µM [cytotoxic, full curve] | inconclusive: 13.2 µM [cytotoxic, partial curve, poor fit] | inactive | active: 23.5 µM | inconclusive: 1.66 µM [cytotoxic, full curve, poor fit] | active: 0.332 µM | active: 1.18 µM | active: 4.18 µM |  |  |  |  |
| O=C(Nc1ccccc1)Nc1ccc(-c2ccc(C(=O)[C@H]3CCC[C@H]3C(=O)O)cc2)cc1 | inconclusive: 14.8 µM [cytotoxic, partial curve, poor fit] | inactive | inconclusive: 23.5 µM [cytotoxic, partial curve, poor fit] | inconclusive: 23.5 µM [cytotoxic, partial curve, poor fit] | inactive | inconclusive: 14.8 µM [cytotoxic, single point] | active: 20.9 µM |  | inactive: 114% |  |  |  |
| CCNC(=O)c1noc(-c2cc(C(C)C)c(O)cc2O)c1-c1ccc(CN2CCOCC2)cc1 | inconclusive: 0.0743 µM [cytotoxic, full curve, poor fit] | inconclusive: 0.059 µM [cytotoxic, full curve, poor fit] | inconclusive: 0.0743 µM [cytotoxic, full curve, poor fit] | inconclusive: 0.0332 µM [cytotoxic, full curve, poor fit] | inconclusive: 0.0662 µM [cytotoxic, full curve, poor fit] |  | inconclusive: 0.0372 µM [cytotoxic, full curve, poor fit] | inconclusive: 0.148 µM [cytotoxic, full curve, poor fit] |  | active: 0.0332 µM |  |  |
| CN(C)c1ccc2cc(C(=O)N[C@@H](CCCN=C(N)CCl)C(=O)NCc3ccccc3)ccc2c1 | active: 4.69 µM | active: 14.8 µM |  |  |  |  |  |  |  |  |  |  |
| Cc1cccc(Nc2nc(-c3ccncc3)cs2)c1 | inconclusive: 14.8 µM [cytotoxic, partial curve, poor fit] | inconclusive: 16.6 µM [cytotoxic, partial curve] | inconclusive: 0.0526 µM [rising, full curve, poor fit] | active: 18.7 µM | inconclusive: 26.4 µM [cytotoxic, single point] | inconclusive: 0.833 µM [rising, full curve] | inconclusive: 16.6 µM [cytotoxic, partial curve, poor fit] | inconclusive: 37.2 µM [cytotoxic, partial curve, poor fit] |  | inactive |  |  |
| O=[N+]([O-])c1ccc(Nc2ccccc2-c2ccccc2)c2nonc12 | inconclusive: 20.9 µM [cytotoxic, single point] | inconclusive: 18.7 µM [cytotoxic, partial curve, poor fit] | inconclusive: 33.2 µM [cytotoxic, single point] | active: 16.6 µM | inactive |  | inconclusive: 37.2 µM [cytotoxic, single point] | inconclusive: 33.2 µM [cytotoxic, single point] |  | inconclusive: 0.001 µM |  |  |
| Oc1cc(O)cc(C=Cc2ccc(O)c(O)c2)c1 | active: 20.9 µM | inconclusive: 18.7 µM [cytotoxic, partial curve] | inconclusive: 33.2 µM [cytotoxic, single point] | inconclusive: 4.18 µM [cytotoxic, partial curve, poor fit] | active: 11.8 µM |  | active: 20.9 µM |  |  |  |  |  |
| CN(Cc1cc(Br)cc(Br)c1N)C1CCCCC1 | inconclusive: 26.4 µM [cytotoxic, single point] | inconclusive: 9.35 µM [rising, single point] | inactive | inactive | inconclusive: 0.003 µM [rising, full curve, poor fit] | inconclusive: 3.32 µM [rising, partial curve, poor fit] | inconclusive: 37.2 µM [cytotoxic, single point] | inconclusive: 37.2 µM [cytotoxic, single point] |  | inconclusive: 1.87 µM [rising, partial curve] |  |  |
| CC1Cc2ccccc2N1NC(=O)c1ccc(Cl)c(S(N)(=O)=O)c1 (stereo unspecified) | inactive | inactive | inconclusive: 1.32 µM [cytotoxic, partial curve, poor fit] | inconclusive: 0.0021 µM [rising, full curve, poor fit] | inactive |  | inconclusive: 16.6 µM [cytotoxic, partial curve, poor fit] | inconclusive: 6.62 µM [cytotoxic, partial curve, poor fit] |  | active: 6.62 µM |  |  |
| O=C1NC(=O)C(=Cc2ccc(-c3ccc(F)cc3O)o2)S1 | inconclusive: 18.7 µM [cytotoxic, partial curve, poor fit] | inconclusive: 33.2 µM [cytotoxic, single point] | inconclusive: 37.2 µM [cytotoxic, single point] | active: 0.833 µM | inconclusive: 0.0017 µM [cytotoxic, full curve, poor fit] |  | inconclusive: 5.26 µM [cytotoxic, full curve, poor fit] | inconclusive: 0.0469 µM [cytotoxic, full curve, poor fit] |  |  |  |  |
| O=C(N[C@@H](c1ccccc1)[C@@H]1CCCCN1)c1cccc(C(F)(F)F)c1Cl | inconclusive: 18.7 µM [cytotoxic, partial curve, poor fit] | inconclusive: 16.6 µM [cytotoxic, partial curve, poor fit] | inconclusive: 29.6 µM [cytotoxic, partial curve, poor fit] | inconclusive: 0.0037 µM [rising, full curve, poor fit] | inconclusive: 18.7 µM [cytotoxic, partial curve, poor fit] | inactive |  | inconclusive: 8.33 µM [cytotoxic, partial curve, poor fit] |  | inconclusive: 20.9 µM [cytotoxic, partial curve, poor fit] |  |  |
| O=C(O)Cc1cccc(OCCCN(Cc2cccc(C(F)(F)F)c2Cl)CC(c2ccccc2)c2ccccc2)c1 | inconclusive: 16.6 µM [cytotoxic, partial curve, poor fit] | inconclusive: 16.6 µM [cytotoxic, partial curve] | active: 23.5 µM | inconclusive: 33.2 µM [cytotoxic, single point] | inconclusive: 18.7 µM [cytotoxic, partial curve] |  | inconclusive: 33.2 µM [cytotoxic, partial curve, poor fit] | active: 11.8 µM |  | inactive |  |  |
| O=C(NOCC1CC1)c1ccc(F)c(F)c1Nc1ccc(I)cc1Cl | inconclusive: 29.6 µM [cytotoxic, partial curve] | inconclusive: 23.5 µM [cytotoxic, partial curve] | inconclusive: 37.2 µM [cytotoxic, single point] | active: 18.7 µM | active: 23.5 µM |  | inconclusive: 29.6 µM [cytotoxic, single point] |  |  | active: 23.5 µM | inconclusive: 5.04% [cytotoxic] |  |
| CC=CC[C@@H](C)C(=O)[C@H]1C(=O)N[C@@H](C(C)C)C(=O)N(C)CC(=O)N(C)[C@@H](CC(C)C)C(=O)N[C@@H](C(C)C)C(=O)N(C)[C@@H](CC(C)C)C(=O)N[C@@H](C)C(=O)N[C@H](C)C(=O)N(C)[C@@H](CC(C)C)C(=O)N(C)[C@@H](CC(C)C)C(=O)N(C)[C@@H](C(C)C)C(=O)N1C | inconclusive: 23.5 µM [cytotoxic, partial curve] | inconclusive: 13.2 µM [cytotoxic, partial curve, poor fit] | inconclusive: 26.4 µM [cytotoxic, partial curve, poor fit] | inconclusive: 7.43 µM [cytotoxic, full curve, poor fit] | inconclusive: 23.5 µM [cytotoxic, partial curve, poor fit] | active: 16.6 µM | active: 23.5 µM |  |  | inconclusive: 26.4 µM [cytotoxic, single point] |  | inconclusive: 18.7 µM [cytotoxic, partial curve, poor fit] |
| OC(CN1CCC(Cc2ccc(F)cc2)CC1)c1ccc(Cl)cc1 (stereo unspecified) | inconclusive: 37.2 µM [cytotoxic, single point] | inactive | inconclusive: 16.6 µM [cytotoxic, partial curve, poor fit] | inactive | inconclusive: 0.0013 µM [cytotoxic, full curve, poor fit] | inconclusive: 13.2 µM [rising, partial curve, poor fit] | inconclusive: 26.4 µM [cytotoxic, single point] | inconclusive: 0.0418 µM [rising, full curve, poor fit] |  | inconclusive: 0.0042 µM [rising, full curve, poor fit] |  |  |
| CC(C)NCC(O)c1ccc(O)c(O)c1 (stereo unspecified) | active: 4.18 µM | inconclusive: 23.5 µM [cytotoxic, partial curve, poor fit] | inconclusive: 23.5 µM [cytotoxic, partial curve, poor fit] | active: 1.87 µM | inconclusive: 11.8 µM [cytotoxic, partial curve, poor fit] | inconclusive: 18.7 µM [cytotoxic, partial curve, poor fit] |  |  |  |  |  |  |

Copied from the list:
Value of `O=C(O)Cc1cccc(OCCCN(Cc2cccc(C(F)(F)F)c2Cl)CC(c2ccccc2)c2ccccc2)c1` under Potency [5]: inconclusive: 18.7 µM [cytotoxic, partial curve]
Value of `O=C(Nc1ccccc1)Nc1ccc(-c2ccc(C(=O)[C@H]3CCC[C@H]3C(=O)O)cc2)cc1` under Potency [2]: inactive

Source: PubChem BioAssay (NCATS)
